{
  "source": "paper PMC2394298",
  "key": {"[1]": {"biological_target": "T1, NF-kB p50 homodimer (UniProt P19838)", "T1 sequence (looked up, limits assumed)": "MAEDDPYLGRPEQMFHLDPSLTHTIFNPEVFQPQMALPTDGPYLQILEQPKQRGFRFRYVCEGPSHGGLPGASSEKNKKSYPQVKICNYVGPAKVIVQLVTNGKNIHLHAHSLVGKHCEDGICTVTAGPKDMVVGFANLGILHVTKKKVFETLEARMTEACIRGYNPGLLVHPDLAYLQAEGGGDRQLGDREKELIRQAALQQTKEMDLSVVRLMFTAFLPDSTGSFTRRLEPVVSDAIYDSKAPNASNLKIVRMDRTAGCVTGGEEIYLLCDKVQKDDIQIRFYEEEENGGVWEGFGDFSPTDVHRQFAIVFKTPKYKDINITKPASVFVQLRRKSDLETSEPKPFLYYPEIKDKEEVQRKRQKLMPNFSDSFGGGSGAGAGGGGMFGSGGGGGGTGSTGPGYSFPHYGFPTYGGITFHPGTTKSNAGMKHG", "assay": "EMSA supershift", "details": "control and NS-398-treated (50 uM, 96 h) HT-29 nuclear extract, increased by NS-398; 1 mM MgCl2, 1 mM KCl, 7.5% Ficoll, 8.5 mM HEPES (pH not given), 1 mM DTT, 1 mg/ml BSA, 1-4 ug poly(dI-dC), 1-4 ug nuclear extract, 20 ul, room temperature; protein in an extract; label: 32P 5' end label"}, "[2]": {"biological_target": "T1, NF-kB p50 homodimer", "assay": "competition with a labelled probe", "details": "excess unlabelled AP-1 oligo did not inhibit NF-kB binding to N1, unlabelled N1 did, dimer assigned from Figure 3; 1 mM MgCl2, 1 mM KCl, 7.5% Ficoll, 8.5 mM HEPES (pH not given), 1 mM DTT, 1 mg/ml BSA, 1-4 ug poly(dI-dC), 1-4 ug nuclear extract, 20 ul, room temperature; protein in an extract; label: none (unlabelled competitor)"}},
  "note": "At least one result comes from cells or an extract, where the contact may be indirect. For some assays here: A negative result means that nothing was seen under these conditions. For some assays here: At least one verdict was read from the data and is not stated in words by the source. Where a protein sequence is shown, tags need not be part of it. For some assays here: The exact form of at least one protein or probe is not confirmed.",
  "data": [
    {"sequence": "AGTTGAGGGGACTTTCCCAGGC (double strand) [NF-kB consensus oligonucleotide (Promega)]", "values": [
      {"measurement": "binding result", "setting": "[1]", "value": "binds"}
    ]},
    {"sequence": "CGCTTGATGAGTCAGCCGGAA (double strand) [AP-1 oligonucleotide (Promega)]", "values": [
      {"measurement": "binding result", "setting": "[2]", "value": "no binding"}
    ]}
  ]
}
